Data as given in a melting point compilation (Tetko et al.).

Details: a range is the spread between reports

| Compound | melting point [°C] |
| --- | --- |
| O=C(c1ccccc1)c1ccccc1 | 47.9 to 49 |
| CCCCCCCCCO | -7 to -4 |
